According to the supplement of paper PMC7661543:
± gives the standard deviation of the averaged measurements. The effect of the compound repeats well; differences between the knockouts mostly do not.

Tested on: HCC-38
Experiment: relative cell number vs DMSO control (72 h) (% of DMSO); higher = less growth inhibition (more cells)
Protocol: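 QMAP-Seq: a pool of 5 breast cancer cell lines (ZR-75-1, SKBR3, HCC-38, MDA-MB-231, BT-20), each carrying 12 doxycycline-inducible Cas9 sgRNA perturbations (11 knockouts plus non-targeting sgNT), was treated with compounds for 72 h at four 10-fold doses (10 nM-10 uM or 1 nM-1 uM range). Barcodes were amplified and sequenced, and cell number was interpolated from 293T spike-in standard curves. The result is expressed as % of the median of DMSO wells. Two biological replicates.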

O=C(O)CCCc1ccc(N(CCCl)CCCl)cc1 [Chlorambucil]
Details | relative cell number
sgRNA knockout: sgATF3, 10 nM | 99.7 ± 6.6
sgRNA knockout: sgATF3, 100 nM | 110 ± 9.3
sgRNA knockout: sgATF3, 1000 nM | 110 ± 2.9
sgRNA knockout: sgATF3, 10000 nM | 73.2 ± 8.1
sgRNA knockout: sgATF4, 10 nM | 92.2 ± 5.4
sgRNA knockout: sgATF4, 100 nM | 100 ± 20
sgRNA knockout: sgATF4, 1000 nM | 103 ± 10
sgRNA knockout: sgATF4, 10000 nM | 69.4 ± 9.2
sgRNA knockout: sgATF6, 10 nM | 97.6 ± 5.2
sgRNA knockout: sgATF6, 100 nM | 117 ± 17
sgRNA knockout: sgATF6, 1000 nM | 110 ± 15
sgRNA knockout: sgATF6, 10000 nM | 69.27 ± 0.64
sgRNA knockout: sgATG7, 10 nM | 91.6 ± 5.6
sgRNA knockout: sgATG7, 100 nM | 102 ± 34
sgRNA knockout: sgATG7, 1000 nM | 113 ± 4.4
sgRNA knockout: sgATG7, 10000 nM | 68.5 ± 3.9
sgRNA knockout: sgERN1, 10 nM | 91.4 ± 12
sgRNA knockout: sgERN1, 100 nM | 101 ± 8.2
sgRNA knockout: sgERN1, 1000 nM | 101 ± 18
sgRNA knockout: sgERN1, 10000 nM | 74.1 ± 4.6
sgRNA knockout: sgHSF1, 10 nM | 96.9 ± 12
sgRNA knockout: sgHSF1, 100 nM | 96.9 ± 24
sgRNA knockout: sgHSF1, 1000 nM | 107 ± 15
sgRNA knockout: sgHSF1, 10000 nM | 61.8 ± 14
sgRNA knockout: sgHSF2, 10 nM | 108.2 ± 0.3
sgRNA knockout: sgHSF2, 100 nM | 104 ± 9.4
sgRNA knockout: sgHSF2, 1000 nM | 102 ± 23
sgRNA knockout: sgHSF2, 10000 nM | 76.2 ± 7.8
sgRNA knockout: sgKEAP1, 10 nM | 107 ± 18
sgRNA knockout: sgKEAP1, 100 nM | 90.2 ± 7.5
sgRNA knockout: sgKEAP1, 1000 nM | 98.7 ± 8.6
sgRNA knockout: sgKEAP1, 10000 nM | 72.1 ± 8.2
sgRNA knockout: sgNFE2L2, 10 nM | 89 ± 9.2
sgRNA knockout: sgNFE2L2, 100 nM | 108 ± 26
sgRNA knockout: sgNFE2L2, 1000 nM | 106 ± 4.8
sgRNA knockout: sgNFE2L2, 10000 nM | 65.3 ± 4.9
sgRNA knockout: sgSLC35F2, 10 nM | 86.5 ± 2.7
sgRNA knockout: sgSLC35F2, 100 nM | 97.9 ± 22
sgRNA knockout: sgSLC35F2, 1000 nM | 104 ± 9.9
sgRNA knockout: sgSLC35F2, 10000 nM | 65 ± 3.1
sgRNA knockout: sgXBP1, 10 nM | 88.13 ± 0.34
sgRNA knockout: sgXBP1, 100 nM | 108 ± 31
sgRNA knockout: sgXBP1, 1000 nM | 106 ± 12
sgRNA knockout: sgXBP1, 10000 nM | 70.32 ± 0.67

Nc1nc(Cl)nc2c1ncn2[C@@H]1O[C@H](CO)[C@@H](O)[C@@H]1F [Clofarabine]
Details | relative cell number
sgRNA knockout: sgATF3, 10 nM | 106 ± 8.3
sgRNA knockout: sgATF3, 100 nM | 26.3 ± 6.5
sgRNA knockout: sgATF3, 1000 nM | 10.6 ± 0.4
sgRNA knockout: sgATF3, 10000 nM | 11.6 ± 3.1
sgRNA knockout: sgATF4, 10 nM | 98.7 ± 13
sgRNA knockout: sgATF4, 100 nM | 26 ± 2.1
sgRNA knockout: sgATF4, 1000 nM | 11.1 ± 1.5
sgRNA knockout: sgATF4, 10000 nM | 11.5 ± 2.7
sgRNA knockout: sgATF6, 10 nM | 101 ± 12
sgRNA knockout: sgATF6, 100 nM | 30 ± 2.4
sgRNA knockout: sgATF6, 1000 nM | 11.8 ± 1.8
sgRNA knockout: sgATF6, 10000 nM | 15.2 ± 2.3
sgRNA knockout: sgATG7, 10 nM | 97.9 ± 25
sgRNA knockout: sgATG7, 100 nM | 28.6 ± 2.8
sgRNA knockout: sgATG7, 1000 nM | 10.8 ± 0.22
sgRNA knockout: sgATG7, 10000 nM | 12.3 ± 1.1
sgRNA knockout: sgERN1, 10 nM | 94.1 ± 2.5
sgRNA knockout: sgERN1, 100 nM | 28.1 ± 3.5
sgRNA knockout: sgERN1, 1000 nM | 12.5 ± 0.63
sgRNA knockout: sgERN1, 10000 nM | 11.7 ± 3.7
sgRNA knockout: sgHSF1, 10 nM | 84.3 ± 9.7
sgRNA knockout: sgHSF1, 100 nM | 35.4 ± 10
sgRNA knockout: sgHSF1, 1000 nM | 13.5 ± 3.6
sgRNA knockout: sgHSF1, 10000 nM | 11 ± 4.6
sgRNA knockout: sgHSF2, 10 nM | 98.7 ± 4.3
sgRNA knockout: sgHSF2, 100 nM | 26.2 ± 1.9
sgRNA knockout: sgHSF2, 1000 nM | 15.4 ± 3.8
sgRNA knockout: sgHSF2, 10000 nM | 11.9 ± 1.9
sgRNA knockout: sgKEAP1, 10 nM | 92.8 ± 5.9
sgRNA knockout: sgKEAP1, 100 nM | 35.4 ± 3
sgRNA knockout: sgKEAP1, 1000 nM | 13.26 ± 0.075
sgRNA knockout: sgKEAP1, 10000 nM | 10.7 ± 1.5
sgRNA knockout: sgNFE2L2, 10 nM | 99.5 ± 16
sgRNA knockout: sgNFE2L2, 100 nM | 24 ± 0.76
sgRNA knockout: sgNFE2L2, 1000 nM | 10.4 ± 0.44
sgRNA knockout: sgNFE2L2, 10000 nM | 10.5 ± 2.9
sgRNA knockout: sgSLC35F2, 10 nM | 98.3 ± 6.2
sgRNA knockout: sgSLC35F2, 100 nM | 24.6 ± 1.1
sgRNA knockout: sgSLC35F2, 1000 nM | 10.7 ± 0.96
sgRNA knockout: sgSLC35F2, 10000 nM | 11.7 ± 3.2
sgRNA knockout: sgXBP1, 10 nM | 98.2 ± 9.8
sgRNA knockout: sgXBP1, 100 nM | 25.93 ± 0.17
sgRNA knockout: sgXBP1, 1000 nM | 8.85 ± 1.2
sgRNA knockout: sgXBP1, 10000 nM | 12.2 ± 4.4

CC(C)(C)c1nc(-c2cccc(NS(=O)(=O)c3c(F)cccc3F)c2F)c(-c2ccnc(N)n2)s1 [Dabrafenib]
Details | relative cell number
sgRNA knockout: sgATF3, 10 nM | 151 ± 45
sgRNA knockout: sgATF3, 100 nM | 103 ± 3.4
sgRNA knockout: sgATF3, 1000 nM | 101 ± 12
sgRNA knockout: sgATF3, 10000 nM | 95 ± 9.8
sgRNA knockout: sgATF4, 10 nM | 147 ± 26
sgRNA knockout: sgATF4, 100 nM | 94.8 ± 12
sgRNA knockout: sgATF4, 1000 nM | 97.2 ± 10
sgRNA knockout: sgATF4, 10000 nM | 92.4 ± 1.3
sgRNA knockout: sgATF6, 10 nM | 131 ± 31
sgRNA knockout: sgATF6, 100 nM | 115 ± 6.6
sgRNA knockout: sgATF6, 1000 nM | 118 ± 12
sgRNA knockout: sgATF6, 10000 nM | 95.7 ± 18
sgRNA knockout: sgATG7, 10 nM | 128 ± 37
sgRNA knockout: sgATG7, 100 nM | 101 ± 11
sgRNA knockout: sgATG7, 1000 nM | 98 ± 9.3
sgRNA knockout: sgATG7, 10000 nM | 102 ± 12
sgRNA knockout: sgERN1, 10 nM | 145 ± 38
sgRNA knockout: sgERN1, 100 nM | 107 ± 13
sgRNA knockout: sgERN1, 1000 nM | 116 ± 15
sgRNA knockout: sgERN1, 10000 nM | 92.9 ± 15
sgRNA knockout: sgHSF1, 10 nM | 131 ± 14
sgRNA knockout: sgHSF1, 100 nM | 122 ± 2.7
sgRNA knockout: sgHSF1, 1000 nM | 112 ± 3.5
sgRNA knockout: sgHSF1, 10000 nM | 94.6 ± 20
sgRNA knockout: sgHSF2, 10 nM | 141 ± 20
sgRNA knockout: sgHSF2, 100 nM | 112 ± 3.4
sgRNA knockout: sgHSF2, 1000 nM | 104 ± 28
sgRNA knockout: sgHSF2, 10000 nM | 86.9 ± 10
sgRNA knockout: sgKEAP1, 10 nM | 149 ± 3.6
sgRNA knockout: sgKEAP1, 100 nM | 111 ± 13
sgRNA knockout: sgKEAP1, 1000 nM | 101 ± 24
sgRNA knockout: sgKEAP1, 10000 nM | 121 ± 14
sgRNA knockout: sgNFE2L2, 10 nM | 133 ± 38
sgRNA knockout: sgNFE2L2, 100 nM | 92.6 ± 14
sgRNA knockout: sgNFE2L2, 1000 nM | 96.2 ± 2
sgRNA knockout: sgNFE2L2, 10000 nM | 95 ± 9.2
sgRNA knockout: sgSLC35F2, 10 nM | 140 ± 30
sgRNA knockout: sgSLC35F2, 100 nM | 102 ± 1.1
sgRNA knockout: sgSLC35F2, 1000 nM | 101 ± 6.7
sgRNA knockout: sgSLC35F2, 10000 nM | 101 ± 1.5
sgRNA knockout: sgXBP1, 10 nM | 149 ± 42
sgRNA knockout: sgXBP1, 100 nM | 103 ± 3.5
sgRNA knockout: sgXBP1, 1000 nM | 105 ± 24
sgRNA knockout: sgXBP1, 10000 nM | 95.2 ± 4.3
